PubChem BioAssay AID686937, Drosophila RNAi Screening Center | 2013
The screen tested about 23,000 reagents; below is an unselected part of those that have a named target and a result. 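Reduced-secretion tags in replicate 1 do not always agree with the z-scores; no criterion for assigning the tags was given.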 A plus sign joins genes that one reagent is predicted to hit. The record does not give: the amount of reagent.

Purpose: 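Genes in the fly needed for secretion of protein constitutively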 (primary screen)
System: Drosophila S2 cells expressing secreted horseradish peroxidase
Reagents: long dsRNA against Drosophila genes
Duration: about 5.5 days (5 days dsRNA, then 12 h reporter induction)
Challenge: reporter expression induced after 5 days of dsRNA, read 12 h later; inducer not stated
Measurement: 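After 5 days of dsRNA and 12 h of reporter induction, medium peroxidase read by chemiluminescence and scored as per-plate z-score; higher values mean more reporter released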
Scale: z-score: higher = more reporter secreted into medium

| Gene | PubChem SID | z-score, replicate 1 | z-score, replicate 2 | z-score, replicate 3 | z-score, replicate 4 | phenotype, replicate 1 |
| --- | --- | --- | --- | --- | --- | --- |
| mAChR-C (GeneID 31626) | SID104197682 | 0.2 | 0.64 | – | – | – |
| CG14538 (retired record) (GeneID 34056) | SID104182188 | 0.37 | 0.43 | – | – | – |
| CG11192 (GeneID 37309) | SID104185849 | 0.33 | 0.07 | – | – | – |
| CG2983 (GeneID 33485) | SID104180350 | 0.29 | 0.36 | – | – | – |
| loopin-1 (GeneID 36847) | SID104186680 | 0.28 | 0.34 | – | – | – |
| Polr3C (GeneID 41542) | SID104194282 | -0.11 | -0.07 | – | – | – |
| Rh50 (GeneID 38589) | SID104188484 | 0.42 | 0.18 | – | – | – |
| mRpS10 (GeneID 41838) | SID104195349 | 0 | -0.33 | – | – | – |
| chp (GeneID 43690) | SID104196717 | 0.08 | 0.19 | – | – | – |
| ND-MNLL (GeneID 31697) | SID104197951 | 0.38 | 0.33 | – | – | – |
| CG14397 (GeneID 8674022) | SID104182173 | 0.26 | 0.28 | – | – | – |
| gammaSnap2 (GeneID 41239) | SID104195784 | 0.34 | 0.28 | – | – | – |
| Mnn1 (GeneID 33991) | SID104183160 | -0.01 | 0.28 | – | – | – |
| CR31427 (GeneID 43464) | SID104202069 | -0.07 | 0.22 | – | – | – |
| CG32206 (GeneID 40105) | SID104189394 | 0.16 | 0.28 | 0.27 | 0.11 | – |
| CG32206 (GeneID 40105) | SID104189886 | 0.37 | 0.33 | – | – | – |
| CG32206 (GeneID 40105) | SID104189887 | 0.22 | 0.23 | – | – | – |
| CG32206 (GeneID 40105) | SID104189888 | 0.28 | 0.41 | – | – | – |
| CG32206 (GeneID 40105) | SID104190872 | 0.2 | -0.61 | – | – | – |
| zormin (GeneID 2769001) | SID104187761 | 0.84 | 0.24 | – | – | – |
| zormin (GeneID 2769001) | SID104188002 | 0.24 | 0.29 | – | – | – |
| zormin (GeneID 2769001) | SID104188004 | 0.23 | 0.37 | – | – | – |
| zormin (GeneID 2769001) | SID104188005 | 0.28 | 0.34 | – | – | – |
| zormin (GeneID 2769001) | SID104188089 | 0.3 | 0.33 | – | – | – |
| zormin (GeneID 2769001) | SID104188363 | 0.04 | 0.18 | – | – | – |
| zormin (GeneID 2769001) | SID104201937 | -0.16 | -0.37 | – | – | – |
| AgmNAT (GeneID 31512) | SID104197864 | 0.19 | 0.59 | – | – | – |
| CG12446 (GeneID 33147) | SID104200410 | 0.42 | 0.13 | – | – | – |
| CG12984 (GeneID 40321) | SID104191485 | 0.27 | 0.21 | – | – | – |
| CG8708 (GeneID 35792) | SID104187032 | 0.47 | 0.3 | – | – | – |
| CG9822 (GeneID 37440) | SID104184360 | -0.26 | -0.17 | – | – | – |
| CG3651 (GeneID 35440) | SID104183522 | -0.06 | 0.14 | – | – | – |
| daed (GeneID 33398) | SID104180091 | 0.3 | 0.38 | – | – | – |
| rswl (GeneID 37124) | SID104186715 | 0.29 | 0.27 | – | – | – |
| CG32483 (GeneID 318050) | SID104187694 | 0.46 | 0.32 | – | – | – |
| CG42784 (GeneID 326165) | SID104182326 | 0.07 | 0.18 | – | – | – |
| CG42784 (GeneID 326165) | SID104182327 | -0.55 | -1.34 | – | – | – |
| CG42784 (GeneID 326165) | SID104201792 | 0.37 | 1.08 | – | – | – |
| CG42784 (GeneID 326165) | SID104202163 | -0.22 | -0.22 | – | – | – |
| CG8003 (GeneID 39210) | SID104190738 | 0.51 | 0.43 | – | – | – |
| Rab40 (GeneID 32195) | SID104199612 | -0.38 | -0.21 | – | – | – |
| CG12010 (GeneID 38421) | SID104188010 | 0.1 | 0.08 | – | – | – |
| TfIIEalpha (GeneID 39313) | SID104191095 | -2.7 | -3.18 | – | – | reduced secretion |
| CG34377 (GeneID 42608) | SID104193351 | 0.53 | 0.02 | – | – | – |
| CG34377 (GeneID 42608) | SID104194500 | 0.31 | 0.44 | – | – | – |
| CG34377 (GeneID 42608) | SID104194501 | 0.39 | 0.39 | – | – | – |
| CG34377 (GeneID 42608) | SID104194502 | 0.23 | 0.38 | – | – | – |
| CG34377 (GeneID 42608) | SID104194503 | 0.22 | -0.22 | – | – | – |
| Arpc4 (GeneID 33864) | SID104182709 | -0.13 | -0.04 | – | – | – |
| CG15203 (GeneID 32038) | SID104199442 | 0.21 | 0.31 | – | – | – |
| dare (GeneID 36203) | SID104187394 | 0.28 | 0.26 | – | – | – |
| Faa (GeneID 45577) | SID104188243 | 0.19 | 0.29 | – | – | – |
| Itpr (GeneID 40664) | SID104192146 | 0.25 | 0.4 | – | – | – |
| CG11588 (GeneID 39347) | SID104188937 | 0.22 | 0.41 | – | – | – |
| CG11588 (GeneID 39347) | SID104189638 | 0.23 | 0.49 | – | – | – |
| Dnaaf4 (GeneID 34547) | SID104182197 | 0.35 | 0.16 | – | – | – |
| stck (GeneID 40999) | SID104196862 | 0.11 | 0.41 | – | – | – |
| CG4743 (GeneID 43101) | SID104195428 | 0.23 | 0.25 | – | – | – |
| Prosalpha1R + Prosalpha1 | SID104187307 | -4.37 | -3.56 | – | – | reduced secretion |
| MED17 (GeneID 42175) | SID104196681 | -4.26 | -3.94 | – | – | reduced secretion |
| Polr1C (GeneID 33712) | SID104182511 | 0.05 | -0.1 | – | – | – |
| CG9040 (GeneID 39546) | SID104190845 | 0.56 | 0.42 | – | – | – |
| dati (GeneID 43789) | SID104196920 | 0.15 | 0.23 | – | – | – |
| dati (GeneID 43789) | SID104196932 | 0.45 | 0.25 | – | – | – |
| dati (GeneID 43789) | SID104196945 | 0.22 | 0.4 | – | – | – |
| abo (GeneID 44793) | SID104182718 | 0.08 | 0.31 | – | – | – |
| CAH8 (GeneID 42625) | SID104195576 | 0.26 | 0.17 | – | – | – |
| Fili (GeneID 5740472) | SID104183699 | -0.15 | 0.14 | – | – | – |
| Fili (GeneID 5740472) | SID104183924 | 0.11 | 0.32 | – | – | – |
| Fili (GeneID 5740472) | SID104184237 | -0.24 | 0.41 | – | – | – |
| CG42340 (GeneID 7354472) | SID104197250 | 0.28 | -1.06 | 0.39 | -0.56 | – |
| CG42340 (GeneID 7354472) | SID104197633 | 0.4 | 0.68 | – | – | – |
| CG42340 (GeneID 7354472) | SID104198097 | -0.89 | -0.75 | – | – | – |
| CG42340 (GeneID 7354472) | SID104201318 | -0.81 | -0.53 | – | – | – |
| IP3K1 (GeneID 34300) | SID104182526 | 0.29 | 0.38 | – | – | – |
| CG6733 (GeneID 42731) | SID104195895 | 0.42 | 0.41 | – | – | – |
| CG34417 (GeneID 31591) | SID104197259 | -0.18 | 0.26 | – | – | – |
| CG34417 (GeneID 31591) | SID104198124 | 0.27 | 0.53 | – | – | – |
| CG34417 (GeneID 31591) | SID104198125 | 0.31 | 0.29 | – | – | – |
| cue (GeneID 38174) | SID104188040 | 0.29 | -0.26 | – | – | – |
| Dip-B (GeneID 48450) | SID104196258 | -0.04 | 0.08 | – | – | – |
| CG1927 (GeneID 38262) | SID104187938 | 0.1 | 0.39 | – | – | – |

5 successive reagents from above, for reference:
| Gene | PubChem SID | z-score, replicate 1 | z-score, replicate 2 | z-score, replicate 3 | z-score, replicate 4 | phenotype, replicate 1 |
| --- | --- | --- | --- | --- | --- | --- |
| Rab40 (GeneID 32195) | SID104199612 | -0.38 | -0.21 | – | – | – |
| CG12010 (GeneID 38421) | SID104188010 | 0.1 | 0.08 | – | – | – |
| TfIIEalpha (GeneID 39313) | SID104191095 | -2.7 | -3.18 | – | – | reduced secretion |
| CG34377 (GeneID 42608) | SID104193351 | 0.53 | 0.02 | – | – | – |
| CG34377 (GeneID 42608) | SID104194500 | 0.31 | 0.44 | – | – | – |
